PubChem BioAssay AID1259254, NCATS | 2017
Screen: 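Genome-wide screen for genes that prevent DNA re-replication in cancer cells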 (primary screen). Cell system: human HCT116 colorectal cancer cells. Knock-down reagent: single siRNA against human genes. Time to read-out: 3 days. Read-out: 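Imaged Hoechst DNA stain sorts each cell into a cycle phase by DNA amount; per plate, G2 fraction set to 0% for non-targeting and 100% for GMNN siRNA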. Reading the numbers: G2 robust z-score and G2 cells, % of GMNN control: higher = more G2 cells, more excess DNA replication; raw share of cells in G2: higher = larger share of cells with G2 DNA content. Rule for the call: 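Active siRNAs have a G2 robust z of 5 or more median absolute deviations over the median, which in these data means about 38% or higher of GMNN control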.
The whole screen tested about 59,000 reagents; this is a random part of them. Over the whole deposit, about 1,550 (2.6%) are marked active. 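G2 share is only a proxy for re-replication; each gene was hit by three separate siRNAs, and active genes were retested.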 The raw values are shown without normalisation. Reagents against one gene are numbered here. Reagent sequences are not shown. The record does not give: the amount of reagent.

gene knocked down,reagent,G2 robust z-score,"G2 cells, % of GMNN control",raw share of cells in G2 (%),activity call
WDR5,1,0.371,5.58,7.17,inactive
WDR5,2,-0.904,-3.39,2.73,inactive
WDR5,3,-0.199,1.57,3.76,inactive
RAB3GAP2,1,0.988,9.92,10.7,inactive
RAB3GAP2,2,-0.688,-1.87,3.57,inactive
RAB3GAP2,3,-0.0483,2.63,4.85,inactive
AMIGO3,1,-0.469,-0.332,5.76,inactive
AMIGO3,2,-0.734,-2.19,4.1,inactive
AMIGO3,3,0.342,5.38,6.25,inactive
HSPA1A,1,-0.862,-3.1,1.98,inactive
HSPA1A,2,0.243,4.67,5.32,inactive
HSPA1A,3,0.967,9.77,9.42,inactive
TBC1D30,1,1.82,15.8,10.4,inactive
TBC1D30,2,0.601,7.19,7.06,inactive
TBC1D30,3,0.487,6.39,5.53,inactive
OR2T29,1,1.9,16.4,9.61,inactive
OR2T29,2,-0.71,-2.03,2.37,inactive
OR2T29,3,1.08,10.6,8.46,inactive
PPIA,1,0.12,3.81,5.41,inactive
PPIA,2,-0.89,-3.29,3.42,inactive
PPIA,3,1.43,13,9.45,inactive
SMAD1,1,-0.31,0.787,3.77,inactive
SMAD1,2,-0.663,-1.7,4.05,inactive
SMAD1,3,1.26,11.9,7.41,inactive
PRAG1,1,-0.539,-0.822,3.31,inactive
PRAG1,2,-1.02,-4.22,1.54,inactive
PRAG1,3,0.404,5.81,4.6,inactive
TMEM243,1,3.02,24.2,15.1,inactive
TMEM243,2,2.41,19.9,13.5,inactive
TMEM243,3,-0.164,1.81,3.18,inactive
DTNA,1,-0.945,-3.68,3.9,inactive
DTNA,2,0.543,6.79,7.85,inactive
DTNA,3,0.0813,3.54,4.92,inactive
WASHC4,1,-0.627,-1.45,3.87,inactive
WASHC4,2,0.426,5.97,6.52,inactive
WASHC4,3,-0.738,-2.22,2.52,inactive
GNPTAB,1,-0.83,-2.87,1.78,inactive
GNPTAB,2,-0.404,0.124,5.96,inactive
GNPTAB,3,2.84,22.9,10.8,inactive

Next part, starting with the last 2 of the part before.
gene knocked down,reagent,G2 robust z-score,"G2 cells, % of GMNN control",raw share of cells in G2 (%),activity call
GNPTAB,2,-0.404,0.124,5.96,inactive
GNPTAB,3,2.84,22.9,10.8,inactive
IL34,1,-0.476,-0.385,3.7,inactive
IL34,2,4.2,32.5,13,inactive
IL34,3,-0.128,2.07,3.79,inactive
LINC00999,1,-0.3,0.855,4.1,inactive
LINC00999,2,-0.788,-2.58,2.27,inactive
LINC00999,3,0.0086,3.03,4,inactive
CMTM3,1,-0.253,1.19,4.57,inactive
CMTM3,2,-0.631,-1.47,2.89,inactive
CMTM3,3,-0.235,1.31,2.2,inactive
CCNDBP1,1,-0.132,2.04,5.18,inactive
CCNDBP1,2,0.773,8.4,7.58,inactive
CCNDBP1,3,-1.05,-4.43,1.75,inactive
PPP1R14A,1,1.18,11.3,6.9,inactive
PPP1R14A,2,-0.336,0.607,4.99,inactive
PPP1R14A,3,0.613,7.28,6.5,inactive
EOLA2,1,-0.744,-2.27,2.77,inactive
EOLA2,2,1.4,12.8,7.88,inactive
EOLA2,3,0.631,7.41,5.3,inactive
NT5M,1,0.847,8.93,7.87,inactive
NT5M,2,0.249,4.72,6.72,inactive
NT5M,3,-0.319,0.725,3.26,inactive
CPEB3,1,-0.45,-0.2,3.8,inactive
CPEB3,2,-0.613,-1.34,5.83,inactive
CPEB3,3,-0.61,-1.32,3.71,inactive
SLC16A7,1,-1.02,-4.2,3.79,inactive
SLC16A7,2,0.0944,3.63,6.19,inactive
SLC16A7,3,-1.53,-7.79,1.92,inactive
COLGALT1,1,-0.755,-2.34,3.47,inactive
COLGALT1,2,-0.709,-2.02,3.42,inactive
COLGALT1,3,-1.17,-5.25,0.941,inactive
